Test results: paper PMC6272981 (Molecules, 2016)

Assay: general procedure: Fmoc solid-phase peptide synthesis; Rink Amide MBHA resin (loading capacity = 0.34 mmol/g); HBTU/HOBt/NMM
Conditions: for final HPLC purity: late stage modification step; for final HPLC purity / crude HPLC purity: RP-HPLC on analytical C18 column, 214 nm; for crude HPLC purity / isolated yield: whole synthesis; for isolated yield: overall

Substance | final HPLC purity | crude HPLC purity | isolated yield
Ac-AR[X1]ST-NH2 (SMILES CC(=O)N[C@@H](C)C(=O)N[C@@H](CCCNC(=N)N)C(=O)N[C@@H](CCCCNC(=S)NCCC(=O)O)C(=O)N[C@@H](CO)C(=O)N[C@H](C(N)=O)[C@@H](C)O) | >95% | – | –
Ac-KR[X1]KT-NH2 (linker 1-4 via Suberoyl(Gly)2; SMILES CC(=O)N[C@H]1CCCCNC(=O)CNC(=O)CCCCCCC(=O)NCC(=O)NCCCC[C@@H](C(=O)N[C@H](C(N)=O)[C@@H](C)O)NC(=O)[C@H](CCCCNC(=S)NCCC(=O)O)NC(=O)[C@H](CCCNC(=N)N)NC1=O) | >95% | 34% pure | 41%
Ac-KR[X1]KT-NH2 (linker 1-4 via Suberoyl; SMILES CC(=O)N[C@H]1CCCCNC(=O)CCCCCCC(=O)NCCCC[C@@H](C(=O)N[C@H](C(N)=O)[C@@H](C)O)NC(=O)[C@H](CCCCNC(=S)NCCC(=O)O)NC(=O)[C@H](CCCNC(=N)N)NC1=O) | >95% | 31% pure | 38%

*1 amine or outer side, *2 acyl side, *3 side chain or, on linkers, in order; H or OH if unused. Bridges are numbered along the chain shown (N, C = ends). [ ]: non-standard residue; d: D form. Suberoyl(Gly)2 = O=C(CCCCCCC(=O)NCC(=O)[*:2])NCC(=O)[*:1]; X1 = O=C(O)CCNC(=S)NCCCC[C@H](N[*:1])C(=O)[*:2]; Suberoyl = O=C(CCCCCCC(=O)[*:2])[*:1]
